The list shows a part of the results.
Columns and labels:
Assay in all cases: protein microarray (ProtoArray v5.0), streptavidin-Alexa Fluor 647
Conditions in all cases: 3'-biotin; 20 mM Tris (pH 7.5), 5 mM MgCl2, 100 mM KCl, 0.1% Tween-20, A/T-rich and random oligonucleotide blockers; temperature not stated; high values mean tight binding
C7orf24 (human) = system: C7orf24 (human)
C7orf36 (human) = system: C7orf36 (human)
C7orf41 (human) = system: C7orf41 (human)
C8orf43 (human) = system: C8orf43 (human)
C8orf47 (human) = system: C8orf47 (human)
C8orf76 (human) = system: C8orf76 (human)
C9orf46 (human) = system: C9orf46 (human)
C9orf71 (human) = system: C9orf71 (human)
C9orf95 (human) = system: C9orf95 (human)
CA2 (human) = system: CA2 (human)

Question: “GGTGACAGGGGTATGGGGAGGGG [G4-2 biotinylated (Ct1)]” was tested. Which binding signal (C7orf24 (human)) did it give?
Answer: Its binding signal is -0.366 z-score.

Question: And the binding signal (C7orf36 (human))?
Answer: Its binding signal is -0.399 z-score.

Question: What about the binding signal (C7orf41 (human)) of the same sequence?
Answer: Its binding signal is -0.404 z-score.

Question: What about the binding signal (C8orf43 (human)) of the same sequence?
Answer: Its binding signal is -0.384 z-score.

Question: What about the binding signal (C8orf47 (human)) of the same sequence?
Answer: The binding signal was -0.404 z-score.

Question: And the binding signal (C8orf76 (human))?
Answer: The binding signal was -0.369 z-score.

Question: What about the binding signal (C9orf46 (human)) of the same sequence?
Answer: The binding signal was -0.374 z-score.

Question: What about the binding signal (C9orf71 (human)) of the same sequence?
Answer: Its binding signal is -0.363 z-score.

Question: And the binding signal (C9orf95 (human))?
Answer: The binding signal was -0.374 z-score.

Question: And the binding signal (CA2 (human))?
Answer: The binding signal was -0.383 z-score.

From PMC5996148
